Earlier results as cited in patent US20110144577A1, “HYDROPHILIC COATINGS WITH TUNABLE COMPOSITION FOR DRUG COATED BALLOON” (priority 2009, published 2011).
At least one read-out could not be matched to a standard name with certainty.

Conditions: cited from earlier work

In the case of `OCC(O)CO` [glycerol], the chi solubility parameter is given as “plasticizer is 33.8 MPa^(1/2). Water”.
